Measurements from patent publication US8912202B2, “N-(benzimimdazol-2-yl)-cyclopropane carboxamides as lysophosphatidic acid antagonists” (Merck Patent GmbH, priority 2011, dated 2014).
Structures were worked out from names or drawings and are uncertain.

Sequences of proteins named here, by UniProt entry; tags and fusion partners are left off.
UniProt Q9HBW0, whole entry: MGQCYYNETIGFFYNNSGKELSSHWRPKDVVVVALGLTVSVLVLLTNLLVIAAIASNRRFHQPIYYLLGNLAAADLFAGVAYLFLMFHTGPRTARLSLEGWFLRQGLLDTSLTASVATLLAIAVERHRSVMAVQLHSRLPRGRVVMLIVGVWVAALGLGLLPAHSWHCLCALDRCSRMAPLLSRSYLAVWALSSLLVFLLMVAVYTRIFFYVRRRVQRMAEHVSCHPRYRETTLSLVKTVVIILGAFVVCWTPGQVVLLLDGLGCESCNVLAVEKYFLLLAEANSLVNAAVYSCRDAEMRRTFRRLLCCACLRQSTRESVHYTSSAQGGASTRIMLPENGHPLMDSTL

Target: LPA2R (Homo sapiens, UniProt Q9HBW0)
Test: LPA2R-Calciumflux assay (FLIPR, intracellular calcium mobilisation after LPA)
Settings: read-out: IC50 (LPA2R); U2OS cells recombinant expressing LPA2R; antagonism of LPA-induced calcium flux; racemate of the two trans enantiomers unless marked enantiomer
Description: The assay detects intra cellular calcium which is generated by cells upon activation of the LPA2 receptor by its ligand LPA. This transient calcium mobilization can be monitored using a commercial calcium detection kit (e.g. from Molecular Devices). The main component of such a kit is a dye, which becomes fluorescent when calcium is present—a transient fluorescence signal after addition of a ligand to a test well are the result. Readers like the FLIPR (Molecular Devices) can be used to monitor such transient “Ca-flux” signals.
The signals are calculated according to peak maximum minus base line.
Compounds which are antagonists of LPA lead to a decreased mobilisation of intracellular calcium and thus to a lower signal. The assay is performed in microplates (384 wells per plate).
LPA2R-Calciumflux Assay Protocol
The assay is run according to the following procedure:
50 uL seed cells (10000 cells/well in DMEM buffer)
• Incubate 24 h at 37° C., 10% CO2 • aspirate medium 50 uL add calcium dye 1×HBSS/HEPES buffer • incubate 1 h at 37° C. (“loading”) • equilibrate 10 min at RT 5 uL add compounds in HEPES buffer • shake 10 sec. at 1000 rpm • incubate 15 min at RT 20 uL add LPA (in the FLIPR Tetra) in Krebs-buffer/BSA & measurement
The cells are seeded in DMEM buffer (DMEM, 10% FCS, 10 mM HEPES, 1% Pen/Strep). […]

Q: How did the IC50 turn out when O=C(Nc1nc2cc(Cl)cnc2[nH]1)[C@@H]1C[C@H]1c1ccccc1 (relative stereo) was run?
A: < 10 nM
